From patent publication US20240360436A1
Residue numbers refer to the chain shown, from its start. No constants are given. Whether binding was seen depends on the method and setting. Some results given as binding are weak or reduced against the parent protein; the word gives no strength. One block for each binder: values may come before it.

How the values were obtained:
Her3 antigen = Her3 antigen (UniProt P21860); experiment: ELISA on Her3 antigen, clone screening
[1] = molecular target: CD40 antigen (biotin-label-free, AcroBio Cat #: CDO-H5253) (UniProt P25942); experiment: ELISA on coated CD40 antigen, clone screening

binding (Her3 antigen): binds
B1: DDBK004-9 (Fab, V domains shown)
VH: QVQLQQWGAGLLKPSETLSLTCAVYGGSFSGYYWSWIRQPPGKGLEWIGEINHSGSTNYNPSLKSRVTISVETSKNQFSLKLSSVTAADTAVYYCARDKWTWYFDLWGRGTLVTVSS
VL: EIVMTQSPASLAVSLGERATINCKSSQSVLYSPNNRNYLAWYQHKPGQAPKLLISWASTRESGVPDRFSGSGSGTDFTLTISSLQAEDVAVYYCQQYYGPPRTFGGGTKVEIKR

binding [1]: binds
B2: DDBK003-14 (Fab, V domains shown)
VH: QVQLVESGAEVKKPGSSVKVSCKASGGTFSASAISWVRQAPGQGLEWMGGIFPILGSANYAQKFQGRVTITADESTSTAYMELSSLRSEDTAVYYCARDLAGYNYGFFGYWGRGTLVTVSS
VL: DIQMTQSPSSVSASVGDRVTITCRASQGINSWLAWYQQKPGRAPKLLIYTASTLQSGVPSRFSGSGSGTDFTLTISSLQPEDFATYYCQQAKSFPLTFGGGTKVEIKR

binding [1]: binds
B3: DDBK003-16 (Fab, V domains shown)
VH: B2 VH
VL: B2 VL with N30S, R42K, T50A, T53S, K92N, V104L
